These results are taken from publication PMC5557861.

These are yes or no findings as the source states them, for the method shown. Tags and fused reporters may be left off the sequences shown.

The experiment deals with T1, full-length ScWss1 (Saccharomyces cerevisiae Wss1) (Saccharomyces cerevisiae S288c), P38838.
T1 chain: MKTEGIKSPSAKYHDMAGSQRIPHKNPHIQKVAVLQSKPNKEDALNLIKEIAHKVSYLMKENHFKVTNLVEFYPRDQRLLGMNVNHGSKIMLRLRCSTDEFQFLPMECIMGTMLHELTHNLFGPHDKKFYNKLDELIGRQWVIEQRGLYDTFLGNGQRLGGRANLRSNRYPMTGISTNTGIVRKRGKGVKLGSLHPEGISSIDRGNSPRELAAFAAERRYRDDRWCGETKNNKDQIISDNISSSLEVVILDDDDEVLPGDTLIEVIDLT
In words: SAXS; full-length ScWss1 in solution at 2, 4 and 6 mg/ml, data extrapolated to zero concentration; molecular mass from SAXS 35 kDa against 31 kDa from the sequence; both purified. The following applies: remark: other sources report otherwise.

B1: full-length ScWss1 (Saccharomyces cerevisiae Wss1), P38838 1-269 (enzyme)
chain: T1 chain
B1: the binding result is “no binding (tested: 2 mg/ml, 4 mg/ml, and 6 mg/ml)”.
